Data published in paper PMC4973355.
Where two headings read alike, the source gives them in different places. Results are given in words; binding and its absence hold for the method and conditions named. In cells and extracts the contact can be indirect. Some binding calls cover weakened binding; strength is not graded here. For part of these data: Where a sequence is shown, tags or fusion partners need not be part of it.

Protein sequences, listed by entry. Tags and fused reporters are not part of them.
UniProt Q02248: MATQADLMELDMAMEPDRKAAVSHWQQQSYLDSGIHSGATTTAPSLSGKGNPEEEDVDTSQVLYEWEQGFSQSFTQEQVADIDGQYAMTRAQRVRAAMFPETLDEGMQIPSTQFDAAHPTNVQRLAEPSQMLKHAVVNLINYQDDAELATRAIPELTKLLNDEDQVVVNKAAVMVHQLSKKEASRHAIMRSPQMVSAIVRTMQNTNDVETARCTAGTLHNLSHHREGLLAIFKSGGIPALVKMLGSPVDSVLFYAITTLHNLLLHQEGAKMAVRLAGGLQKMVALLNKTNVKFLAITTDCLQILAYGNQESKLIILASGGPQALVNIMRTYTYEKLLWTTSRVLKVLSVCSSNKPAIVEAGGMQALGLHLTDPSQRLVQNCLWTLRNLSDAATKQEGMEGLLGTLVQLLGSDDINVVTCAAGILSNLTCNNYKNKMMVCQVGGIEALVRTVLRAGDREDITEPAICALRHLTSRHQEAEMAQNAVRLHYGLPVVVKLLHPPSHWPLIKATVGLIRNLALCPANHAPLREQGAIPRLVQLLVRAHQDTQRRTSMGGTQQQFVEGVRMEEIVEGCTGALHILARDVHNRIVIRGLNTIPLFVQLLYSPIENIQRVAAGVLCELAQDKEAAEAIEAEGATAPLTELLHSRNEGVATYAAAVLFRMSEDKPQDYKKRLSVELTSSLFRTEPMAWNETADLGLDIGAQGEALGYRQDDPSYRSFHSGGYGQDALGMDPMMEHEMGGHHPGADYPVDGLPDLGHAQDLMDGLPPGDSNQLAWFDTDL
UniProt P27782: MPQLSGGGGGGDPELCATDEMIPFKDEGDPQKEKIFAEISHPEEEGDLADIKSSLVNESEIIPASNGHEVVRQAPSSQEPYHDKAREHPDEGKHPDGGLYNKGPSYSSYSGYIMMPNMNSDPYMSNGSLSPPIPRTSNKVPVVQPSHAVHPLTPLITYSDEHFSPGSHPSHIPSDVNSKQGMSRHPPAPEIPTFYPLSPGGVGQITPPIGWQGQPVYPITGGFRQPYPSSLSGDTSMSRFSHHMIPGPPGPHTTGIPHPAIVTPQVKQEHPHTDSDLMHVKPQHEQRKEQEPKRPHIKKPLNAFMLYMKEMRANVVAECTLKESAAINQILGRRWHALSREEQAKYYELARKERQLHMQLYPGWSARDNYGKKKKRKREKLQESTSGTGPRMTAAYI

Assays:
[1] = molecular target: endogenous CD2AP of HEK293T cells (human (endogenous in HEK293T)) (UniProt Q9Y5K6); assay: co-IP; endogenous CD2AP precipitated with CD2AP 1774 and 1764 antibodies (rabbit IgG as control) from HEK293T cells transiently transfected with Flag-tankyrase 2, tankyrase 1 or Flag-ANK
[2] = molecular target: T1, GST-2.SH3 domain of CD2AP (mouse) (UniProt Q9JLQ0); assay: pull-down; GST fusions of CD2AP (NH2 terminus, individual SH3 domains) or GST alone; lysates of transiently transfected HEK293T cells; immunoblotting; only the target purified
T1 sequence: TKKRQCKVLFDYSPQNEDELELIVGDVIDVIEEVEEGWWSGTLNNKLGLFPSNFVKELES

[3] = molecular target: T2, GST-tagged NH2-terminus (amino acids 1–330) of mouse CD2AP (mouse) (UniProt Q9JLQ0); assay: as above
T2 sequence: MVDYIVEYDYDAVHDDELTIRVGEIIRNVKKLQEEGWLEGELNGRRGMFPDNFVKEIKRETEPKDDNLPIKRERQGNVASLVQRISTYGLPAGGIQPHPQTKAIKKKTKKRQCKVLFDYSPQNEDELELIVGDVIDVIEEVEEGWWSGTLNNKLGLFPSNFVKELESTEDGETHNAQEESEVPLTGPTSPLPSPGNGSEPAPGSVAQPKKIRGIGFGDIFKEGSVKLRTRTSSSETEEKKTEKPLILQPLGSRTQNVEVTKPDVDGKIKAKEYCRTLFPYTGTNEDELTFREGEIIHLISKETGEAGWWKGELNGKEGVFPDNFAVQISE

[4] = molecular target: active β-catenin of mouse podocytes (mouse (endogenous in mouse podocytes)) (UniProt Q02248); assay: proximity ligation; Duolink in situ PLA with active β-catenin and LEF1 antibodies in cultured WT and CD2AP−/− mouse podocytes, without and with XAV939
[5] = molecular target: T1, GST-2.SH3 domain of CD2AP (mouse); assay: pull-down; GST fusions of CD2AP (NH2 terminus, individual SH3 domains) or GST alone; lysates of transiently transfected HEK293T cells; immunoblotting; only the target purified; remark: listed apart in the source
[6] = molecular target: T2, GST-tagged NH2-terminus (amino acids 1–330) of mouse CD2AP (mouse); assay: as above; remark: listed apart in the source
[7] = molecular target: endogenous CD2AP of mouse kidney (mouse (endogenous in mouse kidney)) (UniProt Q9JLQ0); assay: co-IP; endogenous CD2AP precipitated with CD2AP 1774 antibody (rabbit IgG as control) from mouse kidney and isolated rat glomerular lysates; endogenous tankyrases detected by immunoblotting

## tankyrase 1 transiently overexpressed in HEK293T cells (from UniProt O95271 1-1327) (enzyme)
[1]
  binding: binds
[2]
  binding: binds
[3]
  binding: binds

## LEF1 of mouse podocytes (from UniProt P27782 1-397)
[4]
  binding: binds

B1: Flag-tagged tankyrase 2 transiently overexpressed in HEK293T cells (enzyme, UniProt Q9H2K2 1-1166)
chain: MSGRRCAGGGAACASAAAEAVEPAARELFEACRNGDVERVKRLVTPEKVNSRDTAGRKSTPLHFAAGFGRKDVVEYLLQNGANVQARDDGGLIPLHNACSFGHAEVVNLLLRHGADPNARDNWNYTPLHEAAIKGKIDVCIVLLQHGAEPTIRNTDGRTALDLADPSAKAVLTGEYKKDELLESARSGNEEKMMALLTPLNVNCHASDGRKSTPLHLAAGYNRVKIVQLLLQHGADVHAKDKGDLVPLHNACSYGHYEVTELLVKHGACVNAMDLWQFTPLHEAASKNRVEVCSLLLSYGADPTLLNCHNKSAIDLAPTPQLKERLAYEFKGHSLLQAAREADVTRIKKHLSLEMVNFKHPQTHETALHCAAASPYPKRKQICELLLRKGANINEKTKEFLTPLHVASEKAHNDVVEVVVKHEAKVNALDNLGQTSLHRAAYCGHLQTCRLLLSYGCDPNIISLQGFTALQMGNENVQQLLQEGISLGNSEADRQLLEAAKAGDVETVKKLCTVQSVNCRDIEGRQSTPLHFAAGYNRVSVVEYLLQHGADVHAKDKGGLVPLHNACSYGHYEVAELLVKHGAVVNVADLWKFTPLHEAAAKGKYEICKLLLQHGADPTKKNRDGNTPLDLVKDGDTDIQDLLRGDAALLDAAKKGCLARVKKLSSPDNVNCRDTQGRHSTPLHLAAGYNNLEVAEYLLQHGADVNAQDKGGLIPLHNAASYGHVDVAALLIKYNACVNATDKWAFTPLHEAAQKGRTQLCALLLAHGADPTLKNQEGQTPLDLVSADDVSALLTAAMPPSALPSCYKPQVLNGVRSPGATADALSSGPSSPSSLSAASSLDNLSGSFSELSSVVSSSGTEGASSLEKKEVPGVDFSITQFVRNLGLEHLMDIFEREQITLDVLVEMGHKELKEIGINAYGHRHKLIKGVERLISGQQGLNPYLTLNTSGSGTILIDLSPDDKEFQSVEEEMQSTVREHRDGGHAGGIFNRYNILKIQKVCNKKLWERYTHRRKEVSEENHNHANERMLFHGSPFVNAIIHKGFDERHAYIGGMFGAGIYFAENSSKSNQYVYGIGGGTGCPVHKDRSCYICHRQLLFCRVTLGKSFLQFSAMKMAHSPPGHHSVTGRPSVNGLALAEYVIYRGEQAYPEYLITYQIMRPEGMVDG
[1]
  binding: binds
[5]
  binding: binds
[6]
  binding: binds

B2: tankyrase 1 endogenously expressed in mouse kidneys (enzyme, UniProt Q6PFX9 1-1320)
chain: MAASRRSQHHHHHHQQQLQPAPGASAPPPPPPPPLSPGLAPGPTPASPTAGGLAPFASPRHGLALPEGDGSRDPPDRPRSPDPVDGAVCTVAAPAAVPAASAAVGVAPTPAGGGGGGGNNSASSASSPTSSSSSSPSSPGSSLAESPEAAGVGSTATLGAGAAGLGPGVPAVSGALRELLEACRNGDVSRVKRLVDAANVNAKDMAGRKSSPLHFAAGFGRKDVVEHLLQMGANVHARDDGGLIPLHNACSFGHAEVVSLLLCQGADPNARDNWNYTPLHEAAIKGKIDVCIVLLQHGADPNIRNTDGKSALDLADPSAKAVLTGEYKKDELLEAARSGNEEKLMALLTPLNVNCHASDGRKSTPLHLAAGYNRVRIVQLLLQHGADVHAKDKGGLVPLHNACSYGHYEVTELLLKHGACVNAMDLWQFTPLHEAASKNRVEVCSLLLSHGADPTLVNCHGKSAVDMAPTPELRERLTYEFKGHSLLQAAREADLAKVKKTLALEIINFKQPQSHETALHCAVASLHPKRKQVAELLLRKGANVNEKNKDFMTPLHVAAERAHNDVMEVLHKHGAKMNALDSLGQTALHRAALAGHLQTCRLLLSYGSDPSIISLQGFTAAQMGNEAVQQILSESTPMRTSDVDYRLLEASKAGDLETVKQLCSPQNVNCRDLEGRHSTPLHFAAGYNRVSVVEYLLHHGADVHAKDKGGLVPLHNACSYGHYEVAELLVRHGASVNVADLWKFTPLHEAAAKGKYEICKLLLKHGADPTKKNRDGNTPLDLVKEGDTDIQDLLRGDAALLDAAKKGCLARVQKLCTPENINCRDTQGRNSTPLHLAAGYNNLEVAEYLLEHGADVNAQDKGGLIPLHNAASYGHVDIAALLIKYNTCVNATDKWAFTPLHEAAQKGRTQLCALLLAHGADPTMKNQEGQTPLDLATADDIRALLIDAMPPEALPTCFKPQATVVSASLISPASTPSCLSAASSIDNLTGPLTDLAVGGASNAGDGAAGAERKEGEVAGLDMNISQFLKSLGLEHLRDIFETEQITLDVLADMGHEELKEIGINAYGHRHKLIKGVERLLGGQQGTNPYLTFHCVNQGTILLDLAPEDKEYQSVEEEMQSTIREHRDGGNAGGIFNRYNVIRIQKVVNKKLRERFCHRQKEVSEENHNHHNERMLFHGSPFINAIIHKGFDERHAYIGGMFGAGIYFAENSSKSNQYVYGIGGGTGCPTHKDRSCYICHRQMLFCRVTLGKSFLQFSTMKMAHAPPGHHSVIGRPSVNGLAYAEYVIYRGEQAYPEYLITYQIMKPEAPSQTATAAEQKT
[7]
  binding: binds

B3: tankyrase 2 endogenously expressed in mouse kidneys (enzyme, UniProt Q3UES3 1-1166)
chain: MSGRRCAGGGAACASAGAEAVEPSARELFEACRNGDVERVKRLVTPEKVNSRDTAGRKSTPLHFAAGFGRKDVVEYLLQNGANVQARDDGGLIPLHNACSFGHAEVVNLLLQHGADPNARDNWNYTPLHEAAIKGKIDVCIVLLQHGAEPTIRNTDGRTALDLADPSAKAVLTGDYKKDELLESARSGNEEKMMALLTPLNVNCHASDGRKSTPLHLAAGYNRVKIVQLLLHHGADVHAKDKGDLVPLHNACSYGHYEVTELLVKHGACVNAMDLWQFTPLHEAASKNRIEVCSLLLSYGADPTLLNCHNKSAIDLAPTAQLKERLSYEFKGHSLLQAAREADVTRIKKHLSLEMVNFKHPQTHETALHCAAASPYPKRKQICELLLRKGANTNEKTKEFLTPLHVASENAHNDVVEVVVKHEAKVNALDSLGQTSLHRAAHCGHLQTCRLLLSYGCDPNIISLQGFTALQMGNENVQQLLQEGASLGHSEADRQLLEAAKAGDVETVKKLCTVQSVNCRDIEGRQSTPLHFAAGYNRVSVVEYLLQHGADVHAKDKGGLVPLHNACSYGHYEVAELLVKHGAVVNVADLWKFTPLHEAAAKGKYEICKLLLQHGADPTKKNRDGNTPLDLVKDGDTDIQDLLRGDAALLDAAKKGCLARVKKLSSPDNVNCRDTQGRHSTPLHLAAGYNNLEVAEYLLQHGADVNAQDKGGLIPLHNAASYGHVDVAALLIKYNACVNATDKWAFTPLHEAAQKGRTQLCALLLAHGADPTLKNQEGQTPLDLVSADDVSALLTAAMPPSALPTCYKPQVLSGVRGPGATADALSSGPSSPSSLSAASSLDNLSGSFSELSAVVSSSAAEGATGLQRKEDSGIDFSITQFIRNLGLEHLMDIFEREQITLDVLVEMGHKELKEIGINAYGHRHKLIKGVERLISGQQGLNPYLTLNNSGSGTILIDLSPDDKEFQSVEEEMQSTVREHRDGGHAGGVFNRYNILKIQKVCNKKLWERYTHRRKEVSEENHNHANERMLFHGSPFVNAIIHKGFDERHAYIGGMFGAGIYFAENSSKSNQYVYGIGGGTGCPIHKDRSCYICHRQLLFCRVTLGKSFLQFSAMKMAHSPPGHHSVTGRPSVNGLALAEYVIYRGEQAYPEYLITYQIVRPEGMVDG
[7]
  binding: binds
